Reference: doi:10.1101/2021.12.02.470885
Like-named read-outs stand apart in the source and are kept apart here. No constants are given. Whether binding was seen depends on the method and setting. In cells and extracts the contact can be indirect. Some results given as binding are weak or reduced against the parent protein; the word gives no strength.

Chains of the proteins cited; added tags and fusions are not shown. Residues count along the entry.
UniProt P0CG63, residues 1-76: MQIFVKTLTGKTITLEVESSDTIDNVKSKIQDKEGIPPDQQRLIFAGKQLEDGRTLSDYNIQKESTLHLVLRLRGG

Assays:
[1] = biological target: MBP-OtUBD (Orientia tsutsugamushi) (UniProt B3CVM3); assay: pull-down
[2] = biological target: MBP-OtUBD (Orientia tsutsugamushi) (UniProt B3CVM3); assay: pull-down; remark: listed apart in the source

For “ubiquitin of yeast lysate (free and conjugated to proteins) (from UniProt P0CG63 1-76)”, the binding [1] was “binds” and the binding [2] was “binds”.
